Experimental data reported in patent publication US20240009143A1, “EXTRACTION OF SHIKONIN FROM ARNEBIA DECUMBENS ROOTS AND USE OF SHIKONIN DERIVATIVES FOR TREATING ULCERS” (KUWAIT UNIVERSITY, priority 2022, published 2024).
At least one compound was matched to its structure with a doubt left. Some of these results come from one statement about several compounds together.

Assays:
Absorbance of UVA & UVB = format: physicochemical
Candida albicans = experiment: In vitro testing on Candida albicans; format: cell-based
diabetic ulcers = experiment: Wound healing of diabetic rat ulcers, topical ointment; format: in vivo, male albino rats of Wistar strain; details: in petroleum jelly
Heliobacter pylori = experiment: In vitro testing on H. pylori; format: cell-based
Protocol: The biological activity of the 4 shikonin derivatives were tested against 2 microorganisms Heliobacter pylori (H. pylori or HP) and Candida albicans (C. albicans).

[1] = 30 μg and 60 μg, more significant effect with 60 μg than with 30 μg

Row | Structure (SMILES) | capacity of absorbing UVA & UVB (Absorbance of UVA & UVB) | change of absorbance of UVA & UVB compared with shikonin (Fraction E) (Absorbance of UVA & UVB) | inhibitory effect on Candida albicans (Candida albicans) | morphological changes to Candida albicans cells (Candida albicans; [1]) | epithelialization of rat diabetic ulcers (diabetic ulcers) | rate of ulcer contraction (diabetic ulcers) | inhibitory effect on Heliobacter pylori (Heliobacter pylori) | morphological changes to H. pylori cells (Heliobacter pylori; [1])
1 | CC(=O)O[C@H](CC=C(C)C)C1=CC(=O)c2c(O)ccc(O)c2C1=O [compound D, acetylshikonin] | 95-97% | increased | significant inhibitory effect | the cells changed from ovoid into a filamentous shape | epithelialize faster | significantly increase | significant inhibitory effect | the cells changed from rod shape into a coccoidal shape
2 | CC(C)=CC[C@@H](O)C1=CC(=O)c2c(O)ccc(O)c2C1=O [compound E, shikonin] | 95-97% | – | – | – | – | – | – | –
3 | CC(C)=CCCC1=CC(=O)c2c(O)ccc(O)c2C1=O (single isomer, unassigned) [compound B, deoxyshikonin] | – | decreased | – | – | – | – | – | –
